# Measurements published in paper PMC4491177, “Co-translational capturing of nascent ribosomal proteins by their dedicated chaperones” (Nature Communications, 2015).
# Amino acid sequences for entries named in this document (tags omitted). A change or cut given only in a name is not applied to a line headed by its entry.
# UniProt P14126: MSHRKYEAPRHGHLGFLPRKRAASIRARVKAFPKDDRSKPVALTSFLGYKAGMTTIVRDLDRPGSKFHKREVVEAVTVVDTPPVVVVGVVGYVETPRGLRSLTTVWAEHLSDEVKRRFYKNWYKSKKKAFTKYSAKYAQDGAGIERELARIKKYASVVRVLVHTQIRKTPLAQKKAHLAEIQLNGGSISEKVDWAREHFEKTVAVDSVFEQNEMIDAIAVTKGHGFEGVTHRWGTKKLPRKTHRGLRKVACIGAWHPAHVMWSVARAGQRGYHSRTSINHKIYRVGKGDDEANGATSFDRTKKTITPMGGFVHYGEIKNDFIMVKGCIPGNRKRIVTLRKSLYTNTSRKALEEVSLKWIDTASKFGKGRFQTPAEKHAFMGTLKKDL
# No constants are given. Whether binding was seen depends on the method and setting. Some results given as binding are weak or reduced against the parent protein; the word gives no strength. For some assays here: Tags and fused reporters may be left off the sequences shown.
# How the values were obtained:
# [1] = biological target: T1, NTAP-Rrb1 (S. cerevisiae) (UniProt Q04225); assay: affinity purification of a TAP-tagged bait from yeast cells (in vivo co-purification); Sqt1-TAP or NTAP-Rrb1 bait; yEGFP fusions or 2xHA-tagged ribosomal proteins as prey; Supplementary Fig. 3b,c, methods not shown
# T1 sequence: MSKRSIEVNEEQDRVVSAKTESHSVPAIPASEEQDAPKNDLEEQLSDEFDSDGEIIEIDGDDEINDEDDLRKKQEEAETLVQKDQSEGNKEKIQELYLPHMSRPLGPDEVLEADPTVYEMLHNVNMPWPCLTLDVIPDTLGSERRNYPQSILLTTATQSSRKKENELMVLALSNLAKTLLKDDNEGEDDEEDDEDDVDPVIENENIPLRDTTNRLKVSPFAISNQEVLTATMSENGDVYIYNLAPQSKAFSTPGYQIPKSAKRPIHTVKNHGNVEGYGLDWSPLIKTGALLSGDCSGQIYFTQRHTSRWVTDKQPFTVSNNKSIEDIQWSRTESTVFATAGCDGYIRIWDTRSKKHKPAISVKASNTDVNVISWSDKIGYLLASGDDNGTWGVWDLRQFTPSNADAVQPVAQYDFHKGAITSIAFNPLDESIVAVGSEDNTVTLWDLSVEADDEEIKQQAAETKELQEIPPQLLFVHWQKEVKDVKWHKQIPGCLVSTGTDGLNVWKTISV
# [2] = biological target: T1, NTAP-Rrb1 (S. cerevisiae); assay: tandem-affinity purification (TAP); TAP-tagged bait purified from yeast cell lysates; 50 mM Tris-HCl (pH 7.5), 100 mM NaCl, 1.5 mM MgCl2, 5% glycerol, 0.1% NP-40; final EGTA eluates on SDS-PAGE, Coomassie staining
# [3] = biological target: T2, Rrb1 (yeast two-hybrid fusion) (S. cerevisiae) (UniProt Q04225); assay: two-hybrid; bait fused to the Gal4 DNA-binding domain, prey to the Gal4 activation domain, reporter strain PJ69-4A; HIS3 and ADE2 reporters, plates 3 days at 30 °C
# T2 sequence: T1 sequence
# [4] = biological target: T3, Rrb1.60C (yeast two-hybrid fusion) (S. cerevisiae) (UniProt Q04225); assay: as above
# T3 sequence: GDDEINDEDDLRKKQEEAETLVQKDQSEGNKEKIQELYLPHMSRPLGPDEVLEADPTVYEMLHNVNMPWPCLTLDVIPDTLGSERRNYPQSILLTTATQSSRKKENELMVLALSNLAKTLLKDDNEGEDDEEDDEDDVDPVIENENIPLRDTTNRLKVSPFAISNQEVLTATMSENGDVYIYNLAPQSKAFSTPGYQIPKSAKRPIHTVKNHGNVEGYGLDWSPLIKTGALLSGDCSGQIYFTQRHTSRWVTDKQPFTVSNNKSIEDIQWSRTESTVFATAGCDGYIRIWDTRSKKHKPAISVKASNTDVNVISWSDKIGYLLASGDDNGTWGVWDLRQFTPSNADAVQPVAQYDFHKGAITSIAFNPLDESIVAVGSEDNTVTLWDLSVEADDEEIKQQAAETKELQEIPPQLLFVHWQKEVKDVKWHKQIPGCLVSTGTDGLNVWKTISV
substance,measurement,setting,value
Rpl3-2xHA (from UniProt P14126 1-387),binding,[1],binds
Rpl3 (endogenous) (from UniProt P14126 1-387),binding,[2],binds
Rpl3 (yeast two-hybrid fusion) (from UniProt P14126 1-387),binding,[3],binds
same,binding,[4],binds
Rpl3.8C (yeast two-hybrid fusion) (from UniProt P14126 8-387) (domain or fragment),binding,[3],no binding
